Among the data in publication doi:10.1101/2025.09.30.25337017 are binding values, retold here.

The chains behind the UniProt entries cited, without tags or fusion partners. Residues count along the entry.
UniProt P06731, residues 35-685: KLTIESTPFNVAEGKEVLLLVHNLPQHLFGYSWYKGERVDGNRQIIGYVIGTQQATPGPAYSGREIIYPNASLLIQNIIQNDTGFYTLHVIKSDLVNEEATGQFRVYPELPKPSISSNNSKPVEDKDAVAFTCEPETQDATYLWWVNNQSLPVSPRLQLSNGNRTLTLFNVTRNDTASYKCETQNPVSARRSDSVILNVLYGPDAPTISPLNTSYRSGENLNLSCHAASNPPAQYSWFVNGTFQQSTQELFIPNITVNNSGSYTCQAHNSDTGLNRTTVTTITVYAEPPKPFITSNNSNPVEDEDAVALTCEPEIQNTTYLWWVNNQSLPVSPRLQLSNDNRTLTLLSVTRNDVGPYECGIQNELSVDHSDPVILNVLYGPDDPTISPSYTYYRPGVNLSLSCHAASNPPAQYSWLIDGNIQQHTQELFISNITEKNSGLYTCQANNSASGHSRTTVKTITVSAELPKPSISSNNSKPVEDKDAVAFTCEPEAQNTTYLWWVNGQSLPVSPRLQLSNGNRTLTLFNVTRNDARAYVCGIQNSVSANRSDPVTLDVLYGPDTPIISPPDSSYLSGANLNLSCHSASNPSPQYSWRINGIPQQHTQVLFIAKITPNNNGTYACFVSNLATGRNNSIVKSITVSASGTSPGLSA
UniProt P06733: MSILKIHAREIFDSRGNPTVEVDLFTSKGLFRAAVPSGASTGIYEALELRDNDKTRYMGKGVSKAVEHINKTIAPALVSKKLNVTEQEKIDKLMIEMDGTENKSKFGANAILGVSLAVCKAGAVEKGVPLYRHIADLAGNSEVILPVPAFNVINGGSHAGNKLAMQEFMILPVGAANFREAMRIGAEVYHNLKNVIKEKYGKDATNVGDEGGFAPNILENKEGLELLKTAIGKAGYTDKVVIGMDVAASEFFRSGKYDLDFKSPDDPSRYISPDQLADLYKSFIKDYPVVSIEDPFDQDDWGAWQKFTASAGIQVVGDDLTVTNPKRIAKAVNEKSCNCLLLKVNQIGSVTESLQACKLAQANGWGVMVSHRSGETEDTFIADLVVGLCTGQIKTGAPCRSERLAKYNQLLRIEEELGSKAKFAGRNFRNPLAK
UniProt P09104: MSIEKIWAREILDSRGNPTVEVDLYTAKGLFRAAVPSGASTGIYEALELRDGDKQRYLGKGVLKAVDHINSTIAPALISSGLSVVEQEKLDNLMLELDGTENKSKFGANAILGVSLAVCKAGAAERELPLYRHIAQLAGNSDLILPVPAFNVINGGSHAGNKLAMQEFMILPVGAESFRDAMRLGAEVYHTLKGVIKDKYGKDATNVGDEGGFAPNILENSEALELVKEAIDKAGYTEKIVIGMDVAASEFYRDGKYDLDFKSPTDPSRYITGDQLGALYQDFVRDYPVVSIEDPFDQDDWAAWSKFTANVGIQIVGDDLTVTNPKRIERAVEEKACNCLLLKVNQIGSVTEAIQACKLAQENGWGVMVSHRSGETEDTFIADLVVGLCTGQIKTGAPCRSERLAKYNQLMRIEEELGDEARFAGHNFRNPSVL

To fix the notation:
T1: HSPA13 (UniProt P48723)
T1 sequence: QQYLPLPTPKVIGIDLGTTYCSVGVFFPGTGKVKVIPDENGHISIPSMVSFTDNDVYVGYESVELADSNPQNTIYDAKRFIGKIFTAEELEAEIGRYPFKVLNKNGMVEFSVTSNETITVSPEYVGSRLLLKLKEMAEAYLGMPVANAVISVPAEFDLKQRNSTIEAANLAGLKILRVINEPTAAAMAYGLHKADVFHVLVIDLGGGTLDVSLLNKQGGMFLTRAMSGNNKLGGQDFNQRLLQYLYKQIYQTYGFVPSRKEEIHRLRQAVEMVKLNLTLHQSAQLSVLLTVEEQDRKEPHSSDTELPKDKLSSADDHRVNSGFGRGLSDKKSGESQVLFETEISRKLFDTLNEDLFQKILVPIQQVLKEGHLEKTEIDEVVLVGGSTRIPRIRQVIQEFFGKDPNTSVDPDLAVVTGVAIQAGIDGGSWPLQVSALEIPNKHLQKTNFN

B1: transforming growth factor beta induced (TGFBI) (protein, UniProt Q15582 24-683)
chain: GPAKSPYQLVLQHSRLRGRQHGPNVCAVQKVIGTNRKYFTNCKQWYQRKICGKSTVISYECCPGYEKVPGEKGCPAALPLSNLYETLGVVGSTTTQLYTDRTEKLRPEMEGPGSFTIFAPSNEAWASLPAEVLDSLVSNVNIELLNALRYHMVGRRVLTDELKHGMTLTSMYQNSNIQIHHYPNGIVTVNCARLLKADHHATNGVVHLIDKVISTITNNIQQIIEIEDTFETLRAAVAASGLNTMLEGNGQYTLLAPTNEAFEKIPSETLNRILGDPEALRDLLNNHILKSAMCAEAIVAGLSVETLEGTTLEVGCSGDMLTINGKAIISNKDILATNGVIHYIDELLIPDSAKTLFELAAESDVSTAIDLFRQAGLGNHLSGSERLTLLAPLNSVFKDGTPPIDAHTRNLLRNHIIKDQLASKYLYHGQTLETLGGKKLRVFVYRNSLCIENSCIAAHDKRGRYGTLFTMDRVLTPPMGTVMDVLKGDNRFSMLVAAIQSAGLTETLNREGVYTVFAPTNEAFRALPPRERSRLLGDAKELANILKYHIGDEILVSGGIGALVRLKSLQGDKLEVSLKNNVVSVNKEPVAEPDIMATNGVVHVITNVLQPPANRPQERGDELADSALEIFKQASAFSRASQRSVRLAPVYQKLLERMKH
B2: GPC1 (protein, UniProt P35052 24-530)
chain: DPASKSRSCGEVRQIYGAKGFSLSDVPQAEISGEHLRICPQGYTCCTSEMEENLANRSHAELETALRDSSRVLQAMLATQLRSFDDHFQHLLNDSERTLQATFPGAFGELYTQNARAFRDLYSELRLYYRGANLHLEETLAEFWARLLERLFKQLHPQLLLPDDYLDCLGKQAEALRPFGEAPRELRLRATRAFVAARSFVQGLGVASDVVRKVAQVPLGPECSRAVMKLVYCAHCLGVPGARPCPDYCRNVLKGCLANQADLDAEWRNLLDSMVLITDKFWGTSGVESVIGSVHTWLAEAINALQDNRDTLTAKVIQGCGNPKVNPQGPGPEEKRRRGKLAPRERPPSGTLEKLVSEAKAQLRDVQDFWISLPGTLCSEKMALSTASDDRCWNGMARGRYLPEVMGDGLANQINNPEVEVDITKPDMTIRQQIMQLKIMTNRLRSAYNGNDVDFQDASDDGSGSGSGDGCLDDLCSRKVSRKSSSSRTPLTHALPGLSEQEGQKTS

No constants are given. Whether binding was seen depends on the method and setting. In cells and extracts the contact can be indirect. Some binding calls cover weakened binding; strength is not graded here.

This experiment has as its target T1, HSPA13. The experiment in a line: co-IP.
As to “CEACAM5 (CEA) (from UniProt P06731 35-685)”, the binding result was “binds”.
In the case of ENO1 (from UniProt P06733 1-434), the binding entry was “binds”.
Take ENO2 (from UniProt P09104 1-434): the binding entry was “binds”.
Consider B1, for which the binding entry was “binds”.
On to B2, for which the binding entry is given as “binds”.
